The values below come from patent publication US20120134991A1.

Chains of the proteins cited; added tags and fusions are not shown.
UniProt P18901: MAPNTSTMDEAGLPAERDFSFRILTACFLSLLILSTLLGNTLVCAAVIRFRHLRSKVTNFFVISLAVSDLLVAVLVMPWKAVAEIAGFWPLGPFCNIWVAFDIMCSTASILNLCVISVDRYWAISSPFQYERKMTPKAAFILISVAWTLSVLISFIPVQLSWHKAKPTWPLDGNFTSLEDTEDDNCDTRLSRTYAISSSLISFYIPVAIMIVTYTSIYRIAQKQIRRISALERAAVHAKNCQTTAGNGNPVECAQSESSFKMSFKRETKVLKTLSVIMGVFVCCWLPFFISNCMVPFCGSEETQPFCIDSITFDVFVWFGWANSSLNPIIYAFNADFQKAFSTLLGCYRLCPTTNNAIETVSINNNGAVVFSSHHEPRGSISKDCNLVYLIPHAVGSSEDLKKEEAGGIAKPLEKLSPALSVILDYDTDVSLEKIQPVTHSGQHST

Results are given in words; binding and its absence hold for the method and conditions named. For part of these data: In cells and extracts the contact can be indirect. Some results given as binding are weak or reduced against the parent protein; the word gives no strength. Where a sequence is shown, tags or fusion partners need not be part of it.

Assay [1] concerns the target D1 receptor from solubilized rat striatum / prefrontal cortex (rat) (UniProt P18901). Nature of the assay: GST pull-down from rat striatal extract, Western blot (FIG. 1E).
Assay [2] shares this target. Nature of the assay: GST pull-down, Western blot (FIG. 1E). (Immunoblotting shows a protein as a band on a membrane.)
For assay [3] the target is unchanged. Briefly: GST pull-down from rat striatal extract, Western blot (FIG. 1D).

Take IMKSNGSFPVNRRRV (peptide, not shown: a dimerising Fc or GST) [GST-D2LIL3-29-2 (I256-V270)]: the binding entry in assay [1] and in assay [2] was “binds” throughout.
On to GNCTHPEDMKLCTVIMKSNGSFPVNRRRV (peptide, not shown: a dimerising Fc or GST) [GST-D2IL3-29 (G242-V270)], for which the binding entry in assay [3] is listed as “binds”.
